# Experimental data from the supplement of paper PMC3334620.
# Whole data set: some 33,000 sequences, median “E-score (-0.5 to 0.5)” near -0.015, cut for the highest 2% near 0.3. Some of the results follow.
# Target: T1, Abf1 (UniProt P14164)
# T1 sequence: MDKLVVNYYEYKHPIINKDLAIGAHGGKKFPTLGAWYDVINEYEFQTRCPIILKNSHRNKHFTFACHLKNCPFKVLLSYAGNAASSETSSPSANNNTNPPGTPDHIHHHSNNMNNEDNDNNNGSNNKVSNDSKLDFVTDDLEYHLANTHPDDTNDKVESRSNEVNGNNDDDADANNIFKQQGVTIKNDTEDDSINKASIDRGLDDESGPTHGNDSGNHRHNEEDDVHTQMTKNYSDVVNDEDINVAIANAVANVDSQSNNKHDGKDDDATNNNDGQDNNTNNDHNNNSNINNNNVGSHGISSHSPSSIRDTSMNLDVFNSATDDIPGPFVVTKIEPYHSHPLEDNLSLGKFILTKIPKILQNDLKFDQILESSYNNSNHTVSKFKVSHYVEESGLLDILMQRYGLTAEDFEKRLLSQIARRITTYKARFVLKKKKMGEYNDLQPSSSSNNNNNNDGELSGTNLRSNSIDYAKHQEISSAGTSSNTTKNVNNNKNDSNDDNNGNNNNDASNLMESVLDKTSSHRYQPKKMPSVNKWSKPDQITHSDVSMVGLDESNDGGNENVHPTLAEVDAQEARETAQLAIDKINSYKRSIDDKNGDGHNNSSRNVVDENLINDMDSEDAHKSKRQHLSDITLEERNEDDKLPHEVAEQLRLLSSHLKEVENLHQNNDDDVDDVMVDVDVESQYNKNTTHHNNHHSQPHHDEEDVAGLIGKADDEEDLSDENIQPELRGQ
# Experiment: PBM E-score (8-mer binding enrichment) (E-score (-0.5 to 0.5)); higher = stronger / more preferred TF binding
# Conditions: protein concentration: 200 nM; construct: GST-full length
# Description: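 Universal 'all 10-mer' protein binding microarrays (Agilent AMADID 015681) probed with GST-tagged S. cerevisiae TFs (full-length or DBD) made by in vitro transcription/translation (PURExpress), about 100-200 nM. Bound TF was detected with fluorescent anti-GST. Each ungapped 8-mer (which stands for itself and its reverse complement) is scored by the PBM enrichment score (E-score), a modified Wilcoxon-Mann-Whitney statistic from -0.5 to +0.5, computed with the Universal PBM Analysis Suite. Scale: above 0.35 generally sequence-specific binding.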
row,Sequence,PBM E-score
1,AACCTTTC,-0.16
2,ATTGTCGG,-0.0187
3,GCGTGAGA,0.168
4,ATTTTTGC,0.113
5,AAGAGAGT,-0.24
6,AACCAGCA,-0.213
7,CTAGAGCC,-0.208
8,CCACAACC,0.0977
9,CGGAAAAG,0.0286
10,AGGGATCC,-0.22
11,ATGTCGCG,0.276
12,CGAGAACG,0.154
13,GGTATCAA,0.0321
14,AGCACGAG,0.101
15,AATGAATT,0.142
16,GAAGAACC,-0.255
17,GCTGACCA,-0.12
18,GCGAGACC,-0.121
19,ACTTGTTC,-0.00499
20,ACAGGACC,-0.0782
21,CCTCCCGC,-0.253
22,AGTGGGTA,-0.143
23,GTTGGGGA,-0.147
24,CACATGGG,-0.316
25,AGCATCCC,-0.14

row,Sequence,PBM E-score
1,AGACCGAT,-0.112
2,TCTCCGCA,-0.158
3,CACGCAGA,0.0714
4,AAAAACGA,0.295
5,TATGGGAA,-0.0816
6,ACTACAAC,0.171
7,GAAGCGTC,-0.0802
8,GAACGGGC,-0.174
9,CCTCCTCG,-0.143
10,AGTCTGCG,-0.234
11,CAGGTACC,-0.219
12,AAACTCGG,-0.0387
13,ACCTCCTG,-0.0233
14,ACCCTGGG,-0.161
15,GATCAAGA,0.0482
16,CACCGAGG,-0.099
17,AATGAAAC,0.0946
18,AACGCGGG,-0.0693
19,CATCAGCC,-0.0636
20,ACCTGGGG,-0.215
21,CCGCTTAA,0.0204
22,CGACGCCC,-0.0872
23,CATGATCA,0.33
24,CTGCATTA,-0.102
25,CCAGAGGC,-0.27

row,Sequence,PBM E-score
1,TAAGAGTA,0.0399
2,GGACTGGA,-0.137
3,AGGCTATA,-0.218
4,AGATATTA,0.116
5,CCAGCCAG,-0.249
6,AGACGCCA,0.0124
7,GCGATCCA,0.152
8,TACCTTCA,0.101
9,GCACCGCA,-0.0957
10,ACAGATTC,-0.00274
11,AAGTGTCT,-0.00257
12,ATTTACAG,0.0512
13,AAAGAGTC,-0.13
14,ACCGCCAC,-0.267
15,ATCGGCAA,-0.217
16,ACTGCAGC,-0.232
17,AAGGAATT,-0.124
18,GCCGCCCC,-0.303
19,TGTCGACA,0.0272
20,AGGTGAAG,-0.017
21,GTACATAA,0.324
22,GGTAGACA,-0.118
23,ATCTCTTA,0.152
24,CTGCTGCC,-0.105
25,AAGCAGCT,-0.143

# Exported bar-delimited: entries from further up
row | Sequence | PBM E-score
6 | AACCAGCA | -0.213
21 | CCTCCCGC | -0.253
14 | ACCCTGGG | -0.161

# Rewritten tab-delimited: entries from further up
row	Sequence	PBM E-score
12	CGAGAACG	0.154
17	AATGAAAC	0.0946

# (list continues)

row,Sequence,PBM E-score
1,ATGTGCAC,-0.078
2,AGAGTCCC,-0.214
3,CATTAATA,0.243
4,GTGGAGTA,0.151
5,ACGTCTCG,0.165
6,ACGAACGG,0.312
7,AATAGAGA,-0.131
8,GCATAGAA,-0.0315
9,CATCCCCA,0.0716
10,CAAGCGAG,0.0713
11,CCGCGCGC,-0.0562
12,AACCGTGG,-5e-05
13,ACCCAGTA,-0.0733
14,GACACACC,0.0357
15,TGAGCCAA,-0.101
16,CTATGCAC,0.178
17,CAACTGGA,-0.182
18,GATGCGCC,-0.0192
19,AAGAATTG,-0.00067
20,ACGCTAGC,-0.103
21,TAGCCATA,0.0203
22,ATGGGAGC,-0.227
23,GAATGTCA,0.278
24,CTCACACA,-0.0398
25,CCAGACCA,-0.0967

row,Sequence,PBM E-score
1,GCTAGAAA,0.16
2,AGAATTAC,0.0728
3,CCCTTAGA,-0.174
4,CGTTCTCA,0.059
5,TGACACAA,0.156
6,AATGTGTC,0.0279
7,CCATCCCA,-0.234
8,ACTACGCA,-0.0933
9,CAGAGAGC,-0.237
10,AACGGGCC,-0.116
11,GGTTCGAC,0.0366
12,CAACCATC,-0.167
13,ATCTCCCC,-0.196
14,AGTGCATA,0.131
15,ATGGGTCA,-0.00788
16,ACAAATTA,0.158
17,TCGCCGAA,0.0248
18,CGTGTTTC,-0.155
19,TCCTCCGA,-0.203
20,ATATCAGA,0.191
21,GTAGATAA,0.18
22,GACGCCCC,-0.193
23,ATTCTCTA,0.133
24,CCAGATGC,-0.0341
25,ACACAAGT,0.0793

row,Sequence,PBM E-score
1,TAAGTCCA,0.0117
2,CCAAAGAC,0.0455
3,AATGAGAT,0.148
4,AAGCGTAG,-0.0275
5,ATCGCCAG,0.0334
6,ATAACCAG,0.142
7,ATGCAGGA,-0.155
8,CATAGAAA,0.105
9,GTTACGTA,-0.0533
10,GCTAGACC,-0.199
11,CAGCGACG,0.112
12,CAGGCATG,-0.0836
13,AACGATGT,0.229
14,AGCGATCC,0.0374
15,GCTCTGGA,0.165
16,AGCTCCCT,-0.295
17,CCACACAG,-0.0604
18,GCCATATA,0.0849
19,ATACATAA,0.0844
20,GCGGGATA,0.0864
21,AGGAGACG,-0.163
22,CGCAAGAC,0.122
23,AGTTACCA,0.0965
24,AGCATGGC,-0.114
25,CATGTGCA,-0.115

row,Sequence,PBM E-score
1,ACGGAGGG,0.0212
2,CCTGTACA,0.0248
3,GGTAAATA,0.015
4,CTTAAGTA,0.0776
5,CCAATTCA,-0.0262
6,CAACCAGG,-0.288
7,ATCTACGA,0.233
8,AAGTTATG,0.0741
9,GAAGTATC,0.183
10,ACTGGGAA,0.0656
11,ACGTGAGT,-0.0203
12,CCGGTAGA,-0.0669
13,AATCGCTC,-0.0643
14,AGAGCACA,-0.151
15,TACGACCA,0.242
16,ACCTATAT,0.262
17,GCACGAGA,0.178
18,GCCGGTTA,-0.0941
19,AGCTCCAG,-0.158
20,CCGCGATA,0.147
21,CATTTTAA,0.0806
22,CATCATGG,0.101
